{"source": "patent US9981940B2", "about": "“Aryl sulfide derivatives and aryl sulfoxide derivatives as acaricides and insecticides” (BAYER CROPSCIENCE AKTIENGESELLSCHAFT, priority 2013, dated 2018)", "test_system": "Tetranychus urticae", "experiment": "Tetranychus urticae spray test, OP-resistant (TETRUR)", "assay_type": "in vivo", "conditions": "application rate of 500 g/ha; after 6 days", "description": "Tetranychus urticae—Spray Test, OP-Resistant (TETRUR)\n• Solvent: 78.0 parts by weight of acetone • 1.5 parts by weight of dimethylformamide • Emulsifier: 0.5 part by weight of alkylaryl polyglycol ether\nTo produce an appropriate active ingredient formulation, 1 part by weight of active ingredient is mixed with the specified amounts of solvent and emulsifier, and the concentrate is diluted to the desired concentration with emulsifier-containing water.\nDiscs of bean leaves (Phaseolus vulgaris) infested by all stages of the greenhouse red spider mite (Tetranychus urticae) are sprayed with an active ingredient formulation of the desired concentration.\nAfter 6 days, the efficacy in % is determined 100% means that all the spider mites have been killed; 0% means that none of the spider mites have been killed.", "note": "The name of at least one read-out is uncertain."}
{"smiles": "Cc1cc(F)c(-n2nnn(C)c2=O)cc1SCC(F)(F)F", "note": "[Example 302, 1-{2-Fluoro-4-methyl-5-[(2,2,2-trifluoroethyl)sulphanyl]phenyl}-4-methyl-1,4-dihydro-5H-tetrazol-5-one]", "values": [{"measurement": "efficacy", "value": 90, "unit": "%"}]}
